For the assay, the target named is human JAK1 (Homo sapiens, UniProt P23458). The assay is described as follows: JAK1 inhibition assay (polyGT substrate / Ulight-JAK1 peptide). Type of assay: biochemical. The settings on record: read-out: JAK1 IC50; recombinant human JAK1 catalytic domain; polyGT or Ulight-JAK1 peptide assay.

Amino acid sequences for entries named in this document (tags omitted). Residues count along the entry.
UniProt P23458, 866-1154 limits assumed: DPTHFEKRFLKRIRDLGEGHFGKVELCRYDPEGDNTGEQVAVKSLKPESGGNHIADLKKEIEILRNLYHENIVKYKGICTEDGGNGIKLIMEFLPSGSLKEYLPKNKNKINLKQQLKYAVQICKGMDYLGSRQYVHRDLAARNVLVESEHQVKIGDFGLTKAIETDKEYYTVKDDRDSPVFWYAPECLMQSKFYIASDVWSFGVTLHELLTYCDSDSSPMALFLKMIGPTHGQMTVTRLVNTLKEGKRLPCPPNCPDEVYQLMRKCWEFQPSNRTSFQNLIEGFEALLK

The structures given here were assigned with low confidence; some may be wrong. Some results are limits rather than exact numbers.

For orientation: IC50 means the point on the concentration scale where inhibition reaches its midpoint. On to `COc1cc(C2CCN(C(=O)OC(C)(C)C)CC2)ncc1N(C)c1cc2c(cn1)ncn2C`, for which the IC50 was above 1000 nM.
